Experimental data: patent US4487708A (priority 1981, dated 1984)
At least one compound was matched to its structure with a doubt left.

Assay: room temperature oxygen scavenging test (flask with dissolved oxygen probe)
Conditions: Table 8; mu-amine combined with hydroquinone, 103 ppm each; 60 seconds, 23-25 °C; final pH 9.3-10.5

CC(C)(N)CO [Aminomethylpropanol]
% O2 Removed: 100%
